Assay results published in patent publication US20220017627A1.

Target: human IL-7Rα expressed on human T cells (whole blood / PBMCs) (human)
Test: flow cytometry, T cells of human whole blood

B1: Anti-IL-7R Antibody (Antibody A) (antibody, human IgG1, kappa, V domains shown)
VH: EVQLVESGGGLVQPGRSLRLSCAASGFTFDDHAMHWVRQAPGKGLEWVSGISWNSRGIGYADSVKGRFTIFRDNAKNSLYLQMNSLRAEDTALYYCAKDEYSRGYYVLDVWGQGTTVTVSS
VL: AIQLTQSPSSLSASVGDRVTITCRASQGISSALAWYQQKPGKAPKLLIYDASSLESGVPSRFSGSGSGTDFTLTISSLQPEDFATYYCQQFNSYPLWITFGQGTRLEIKR
binding: binds

Results are given in words; binding and its absence hold for the method and conditions named. Binding can be weak; no strength is given.
